In US10973794B2, “Dental composition and use” (CALSCIENCE INTERNATIONAL LTD., priority 2015, dated 2021):

Tests used:
Assay type in all cases: cell-based, human
p21 = assay: Taqman Real Time-PCR expression of p21 in HFFs with and without H2O2 stress-induced premature senescence; details: 1/1000 dilution; for dCt, Expression of P21: HPRT control
Experimental: (§1) The following results relate to the analysis of senescence tests on 1,5-Dicaffeoylquinic Acid (1,5-DCQA). FIG. 8 relates to 1,4-DCQA. The experiments were conducted using human foreskin fibroblasts (HFFs).
(§2) In the following experiments, HFFs were challenged for a period of two hours with 150 μM hydrogen peroxide (H2O2), to stimulate premature senescence in the presence and absence of 1,5-DCQA (1/1000 dilution), and subsequently assayed by Taqman Real Time-PCR for the expression of key senescence associated genes.
(§3) The results shown in Table 2 and FIGS. 2 to 7 were generated using the polymerase chain reaction (PCR), wherein the dCt and ddCT values are results used in statistical analysis. The abbreviation dCt relates to “delta cycle threshold” and the abbreviation ddCt relates to “delta delta cycle threshold”. In these experiments, HPRT (hypoxanthine phosphoribosyltransferase, a protein from the HPRT-1 gene) was used as a control.

Sirtuin 3 (SIRT3) = assay: Taqman Real Time-PCR expression of Sirtuin 3 in HFFs with and without H2O2 stress-induced premature senescence; details: 1/1000 dilution; for dCt, Expression of SIRT3: HPRT control
Experimental: as §1, §2
(§4) These genes are involved in cell cycle regulation and mitochondrial stress responses. Challenge with a near lethal level of oxidant stress typically induces an increase in SIRT2 and decrease in SIRT3 expression. […] This is indicative of each having a potential for stimulating cell proliferation in the absence of oxidant challenge.
as §3

p16 = assay: Taqman Real Time-PCR expression of p16 in HFFs with and without H2O2 stress-induced premature senescence; details: 1/1000 dilution; for dCt, Expression of P16: HPRT control
Experimental: as §1, §2, §3

hPOT1 = assay: Taqman Real Time-PCR expression of hPOT1 in HFFs with and without H2O2 stress-induced premature senescence; details: 1/1000 dilution; for dct, Expression of hPOT1: HPRT control
Experimental: as §1, §2
These findings are supported by an analysis of the Protection of Telomeres gene (POT 1).
as §3

Sirtuin 2 (SIRT2) = assay: Taqman Real Time-PCR expression of Sirtuin 2 in HFFs with and without H2O2 stress-induced premature senescence; details: 1/1000 dilution; for dCt, Expression of SIRT2: HPRT control
Experimental: as §1, §2, §4, §3

XRCC5 = assay: Taqman Real Time-PCR expression of XRCC5 in HFFs with and without H2O2 stress-induced premature senescence; details: 1/1000 dilution; for dCt, Expression of XRCC5: HPRT control
Experimental: as §1, §2
XRCC5 is a double strand break repair protein.
as §3

[1] = & stress (150 μM H2O2, two hours)

O=C(/C=C/c1ccc(O)c(O)c1)O[C@@H]1C[C@](OC(=O)/C=C/c2ccc(O)c(O)c2)(C(=O)O)C[C@@H](O)[C@H]1O [1,5-DCQA, 1,5-Dicaffeoylquinic Acid]
P21 (cycle threshold) (p21; [1]): 21.31 | ddCt (−3.761), Expression of P21 (p21; [1]): −2.263 | dCt, Expression of P21 (p21; [1]): −6.024 | P21 (cycle threshold) (p21; no stress): 22.4 | ddCt (−3.761), Expression of P21 (p21; no stress): −0.167 | dCt, Expression of P21 (p21; no stress): −3.928 | SIRT3 (cycle threshold) (Sirtuin 3 (SIRT3); [1]): 29.3 | ddCt (−2.079), Expression of SIRT3 (Sirtuin 3 (SIRT3); [1]): −0.120 | dCt, Expression of SIRT3 (Sirtuin 3 (SIRT3); [1]): 1.959 | SIRT3 (cycle threshold) (Sirtuin 3 (SIRT3); no stress): 28.56 | ddCt (−2.079), Expression of SIRT3 (Sirtuin 3 (SIRT3); no stress): 0.148 | dCt, Expression of SIRT3 (Sirtuin 3 (SIRT3); no stress): 2.227 | P16 (cycle threshold) (p16; [1]): 28.09 | ddCt (1.275), Expression of P16 (p16; [1]): −0.519 | dCt, Expression of P16 (p16; [1]): 0.756 | P16 (cycle threshold) (p16; no stress): 27.66 | ddCt (1.275), Expression of P16 (p16; no stress): 0.050 | dCt, Expression of P16 (p16; no stress): 1.325 | HPOT1 (cycle threshold) (hPOT1; [1]): 29.5758 | dct, Expression of hPOT1 (hPOT1; [1]): 2.240 | HPOT1 (cycle threshold) (hPOT1; no stress): 29.47 | dct, Expression of hPOT1 (hPOT1; no stress): 3.141 | SIRT2 (cycle threshold) (Sirtuin 2 (SIRT2); [1]): 27.72 | ddCt (−0.016), Expression of SIRT2 (Sirtuin 2 (SIRT2); [1]): 0.371 | dCt, Expression of SIRT2 (Sirtuin 2 (SIRT2); [1]): 0.387 | SIRT2 (cycle threshold) (Sirtuin 2 (SIRT2); no stress): 27.16 | ddCt (−0.016), Expression of SIRT2 (Sirtuin 2 (SIRT2); no stress): 0.817 | dCt, Expression of SIRT2 (Sirtuin 2 (SIRT2); no stress): 0.833 | XRCC5 (cycle threshold) (XRCC5; [1]): 25.9 | ddCt (−−1.292), Expression of XRCC5 (XRCC5; [1]): −0.141 | dCt, Expression of XRCC5 (XRCC5; [1]): −1.433 | XRCC5 (cycle threshold) (XRCC5; no stress): 25.48 | ddCt (−−1.292), Expression of XRCC5 (XRCC5; no stress): 0.444 | dCt, Expression of XRCC5 (XRCC5; no stress): −0.848
